According to patent US20260028417A1 (SICHUAN KELUN BIOTECH BIOPHARMACEUTICAL, published 2026):

Molecular target: monkey HER3 protein (extracellular sequence with six histidines at the C-terminal) (monkey)
Experiment: ELISA, coated monkey HER3 protein

B1: 44A4A11 (anti-human HER3 chimeric antibody) (antibody, V domains shown)
VH: EVQLLESGGGLVQPGGSLRLSCAASGFTFSSYAMNWVRQAPGKGLEWVSSISDSGGSTYYADSVKGRFTISRDNSKNTLYLQMNSLRAEDTAVYYCAKDGGISMVRGVIIEEGYFDLWGRGTLVTSPQ
VL: DIQLTQSPSFLSASVGDRVTITCRASQGISSYLAWYQQKPGKAPKLLIYVVSTLQSGVPSRFSGSGSGTEFTLTISSLQPEDFATYYCHQLNSYPLTFGGGTKVEIK
- binding: binds

B2: 100H7D3 (anti-human HER3 chimeric antibody) (antibody, V domains shown)
VH: EVQLVESGGGVVLPGRSLRLSCAASGFTFSRNAMHWVRQAPGKGLEWVAVIWHDGSNKYYGDSVKGRFTISRDNSKNTLYLQMDSLTAEDTAVYYCARDRGASDFRGQGTLVTVSS
VL: DIQMTQSPSTLSASVGDRVTITCRASQSINNWLAWYQQKPEKAPKLLIYKASSLESGVPSRFSGSGSGTEFTLTISSLQPDDFATYYCQQYNSYSLTFGGGTKVEIK
- binding: binds

B3: 22B6D2 (anti-human HER3 chimeric antibody) (antibody, V domains shown)
VH: EVHLVESGGGVVQPGRSLRLSCATSGFTFRSYGMHWVRQAPGKGLEWVAVIWYDGSNKYYADSVKGRFTISRDISKNTLYLQMNSLTAEDTAVYYCARYYYDSNGYYDAFDIWGQGTMVTVSS
VL: DIQLTQSPSFLSASVGDRVTITCRASQGISNYLAWYQQKPGKAPKLLIFAASTLQSGVPSRFSGSGSGAEFTLTISSLEPEDFATYYCQQLNSYPITFGQGTRLEIK
notes: detected with anti-Rat IgG
- binding: binds

B4: 47A3E3 (anti-human HER3 chimeric antibody) (antibody, V domains shown)
VH: EVQLQESGPGLVKPSQTLSLTCAISGDSVSSSQSTWNWIRQSPSRGLEWLGRTFYRSRWYNDYALSMKSRITINPDTSKNQFSLQLNPVTPEDTAVYYCARDTYYYGSGGFDYWGQGSRVTVSS
VL: DIQMTQSPSTLSASVGDRVTITCRASQSLSRWLAWYQQKPEKAPKLLIYKASSLESGVPSRFSGSGSGTEFTLTISTLQPDDFATYYCQQYKNYYSFGQGTKLEIK
- binding: binds

B5: 22B6D2-hIgG (anti-human HER3 fully human antibody) (antibody, V domains shown)
VH: EVHLVESGGGVVQPGRSLRLSCATSGFTFRSYGMHWVRQAPGKGLEWVAVIWYDGSNKYYADSVKGRFTISRDISKNTLYLQMNSLTAEDTAVYYCARYYYDSNGYYDAFDIWGQGTMVTVSS
VL: DIQLTQSPSFLSASVGDRVTITCRASQGISNYLAWYQQKPGKAPKLLIFAASTLQSGVPSRFSGSGSGAEFTLTISSLEPEDFATYYCQQLNSYPITFGQGTRLEIKR
notes: Human IgG1/kappa, expressed in CHO-S cells; also called 22B6D2-hIgG-Bio (biotin-labelled)
- binding: binds

B6: 47A3E3-hIgG (anti-human HER3 fully human antibody) (antibody, V domains shown)
VH: EVQLQESGPGLVKPSQTLSLTCAISGDSVSSSQSTWNWIRQSPSRGLEWLGRTFYRSRWYNDYALSMKSRITINPDTSKNQFSLQLNPVTPEDTAVYYCARDTYYYGSGGFDYWGQGSRVTVSS
VL: DIQMTQSPSTLSASVGDRVTITCRASQSLSRWLAWYQQKPEKAPKLLIYKASSLESGVPSRFSGSGSGTEFTLTISTLQPDDFATYYCQQYKNYYSFGQGTKLEIKR
notes: Human IgG1/kappa, expressed in CHO-S cells; also called 47A3E3-hIgG-Bio (biotin-labelled)
- binding: binds

B7: 100H7D3-hIgG (anti-human HER3 fully human antibody) (antibody, V domains shown)
VH: EVQLVESGGGVVLPGRSLRLSCAASGFTFSRNAMHWVRQAPGKGLEWVAVIWHDGSNKYYGDSVKGRFTISRDNSKNTLYLQMDSLTAEDTAVYYCARDRGASDFRGQGTLVTVSS
VL: DIQMTQSPSTLSASVGDRVTITCRASQSINNWLAWYQQKPEKAPKLLIYKASSLESGVPSRFSGSGSGTEFTLTISSLQPDDFATYYCQQYNSYSLTFGGGTKVEIKR
notes: Human IgG1/kappa, expressed in CHO-S cells; also called 100H7D3-hIgG-Bio (biotin-labelled)
- binding: binds

No constants are given. Whether binding was seen depends on the method and setting. A result given as binding can be weak or reduced; the word gives no strength.
